PubChem BioAssay AID493014 (National Center for Advancing Translational Sciences (NCATS), 2011)
The list shows a part of the results. Further columns of the screen follow, without active or inactive calls. The list favours compounds with an active or inconclusive main result. The note in brackets gives the kind of curve behind each potency; many fits are weak.

Assay: qHTS Assay to Find Inhibitors of Chronic Active B-Cell Receptor Signaling
Settings: ABC-DLBCL IkBa-CBG/CBR reporter, luminescence ratio (green luciferase fused to IkBa over red control in TMD8 lymphoma cells), 4 h
Summary of the method: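 Cell line TMD8 (human ABC DLBCL), stably expressing tet-inducible CBG68-IkBa fusion and CBR; IMDM/0.5% FBS; cpd up to 46 uM; dox induction, 4 h, 37C/5% CO2; dual luminescence; green/red ratio; MG132 control.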

[1] = measured here: CBR red luminescence, cell number
[2] = measured here: IkBa-CBG green luminescence

In the case of `CC(/C=C\c1ccccc1)=C/C(=O)O`, the AC50 [1] is reported as 4.47 µM [rising, full curve, poor fit].
In the case of `Cc1ccc(S(=O)(=O)CCC(=O)Nc2ccccc2C)cc1`, the AC50 [1] is reported as 28.2 µM [falling, single point].
With `CC(C)c1ccc(CN2CC(C(=O)Nc3ccccc3)CC2=O)cc1` (stereo not drawn) the AC50 [1] was 35.5 µM [falling, partial curve, poor fit].
In the case of `C=CC[C@H](CC(=O)N(CCO)Cc1ccccc1)C(=O)N[C@H](COC(=O)[C@@H](CC=C)CC(=O)OC(C)(C)C)c1ccccc1`, the AC50 [1] is reported as 14.6 µM [falling, single point].
For `O=[N+]([O-])c1nn(-c2ccc3c(c2)OCCO3)n(O)c1=NC1CCCC1`, the AC50 [1] was 0.058 µM [falling, full curve, poor fit].
With `COc1cc(Nc2cc(C)nc3ncnn23)cc(OC)c1` the AC50 [1] was 29.1 µM [rising, partial curve, poor fit].
With `COC(=O)c1ccc(C(=O)Nc2nc3cc(N)c(C)cc3s2)cc1` the AC50 [1] was 0.1 µM [falling, full curve, poor fit].
For `Cc1nc2ccc(N3C(=O)CCC3=O)cc2[nH]1`, the AC50 [1] was 16.4 µM [rising, single point].
With `C=CCn1c(-c2ccc(OC)cc2)nc2nc3ccccc3nc21` the AC50 [2] was 20.6 µM [rising, partial curve, poor fit].
With `Cc1ccc(-c2c(C(=O)N/N=C/c3cccs3)nnn2-c2nonc2N)cc1` the AC50 [1] was 14.1 µM [falling, single point].
With `CC(=O)Nc1ccc(/C=N/NC(=O)c2cccs2)cc1` the AC50 [1] was 11.2 µM [falling, partial curve].
With `Cc1occc1C(=O)NNC(=S)NCc1ccc(Cl)cc1` the AC50 [1] was 8.91 µM [falling, partial curve, poor fit].
With `COc1cc2c(cc1OC)CN(C(=O)COc1ccc(C)c(C)c1)CC2` the AC50 [1] was 32.6 µM [rising, single point].
In the case of `COc1cccc(C(=O)Nc2nc(-c3ccc4c(c3)OCO4)cs2)c1`, the AC50 [1] is reported as 13 µM [falling, partial curve].
For `Clc1cc(Br)ccc1NCc1cccnc1`, the AC50 [1] was 25.1 µM [rising, single point].
In the case of `Cc1ccc(S(=O)(=O)NCCOc2nc(N3CCOCC3)nc(N3CCOCC3)n2)cc1`, the AC50 [1] is reported as 3.26 µM [rising, full curve].
In the case of `Cc1ccc(CSCCC(=O)NCc2ccc(F)cc2Cl)cc1`, the AC50 [1] is reported as 1.26 µM [falling, full curve, poor fit] and the AC50 [2] is reported as 0.708 µM [rising, full curve, poor fit].
For `Cc1cc(/C=C2\SC(=S)N(C)C2=O)c(C)n1-c1ccc(O)cc1`, the AC50 [1] was 35.5 µM [falling, single point] and the AC50 [2] was 35.5 µM [rising, partial curve, poor fit].
For `C=CC1C(OC2OC(CO)C(O)C(O)C2O)OC=C(C(=O)OC)C1CC1CC(=O)CC(CC(=O)CCc2ccc(O)cc2)O1` (stereo not drawn), the AC50 [1] was 3.16 µM [rising, single point].
For `O=S(=O)(NCC(c1ccco1)S(=O)(=O)c1cccs1)c1ccc(Cl)cc1` (stereo not drawn), the AC50 [1] was 12.6 µM [falling, partial curve, poor fit].
In the case of `CC(C)(C)c1cc(CN2CCN(CCO)CC2)cc(C(C)(C)C)c1O`, the AC50 [1] is reported as 1.84 µM [falling, full curve].
With `O=c1o[nH]c(-c2ccccc2)c1C=Nc1ccc(Cl)cc1` the AC50 [1] was 11.2 µM [falling, partial curve, poor fit].
With `NCCCCCc1nnc(SCc2cccc(Cl)c2)o1` the AC50 [1] was 6.31 µM [falling, single point].
In the case of `O=C(Nc1ccc2c(c1)OC1(CCCC1)O2)C1CC1`, the AC50 [1] is reported as 3.16 µM [rising, full curve].
In the case of `CCOC(=O)CC(NS(=O)(=O)Cc1ccccc1)c1ccc(C)cc1` (stereo not drawn), the AC50 [1] is reported as 16.4 µM [rising, partial curve].
With `CCOC(=S)SCc1cn2ccc(C)cc2n1` the AC50 [1] was 2.91 µM [rising, partial curve, poor fit] and the AC50 [2] was 23.1 µM [falling, single point].
With `NC(=O)CSc1nnc(SCc2ccc(F)cc2)s1` the AC50 [1] was 35.5 µM [falling, single point].
In the case of `O=C(NC(Cc1ccccc1)c1nc2ccccc2[nH]1)c1cccc([N+](=O)[O-])c1` (stereo not drawn), the AC50 [1] is reported as 35.5 µM [falling, single point].
In the case of `CCCOc1ccc(-c2c(C(=O)N/N=C/c3ccc(C)cc3)nnn2-c2nonc2N)cc1`, the AC50 [1] is reported as 1.41 µM [rising, full curve, poor fit].
In the case of `CC(C)c1cccc(-c2ccc3c(c2)S(=O)(=O)c2cccc(C(=O)O)c2C3=O)c1`, the AC50 [1] is reported as 9.2 µM [rising, partial curve, poor fit].
For `CCN(CC)S(=O)(=O)c1cc(C(=O)NC2=NCCS2)ccc1Cl`, the AC50 [1] was 6.51 µM [rising, single point].
With `CCCC(=O)NC(=S)Nc1ccc(N2CCOCC2)c(Cl)c1` the AC50 [1] was 4.61 µM [rising, full curve].
In the case of `Cc1ccc2c(c1)c(CC(=O)Nc1ccc(F)cc1)c(C(=O)O)n2C`, the AC50 [1] is reported as 6.51 µM [falling, single point].
For `Cc1ccc(N2CCN(C(=O)N3CCCC3)CC2)cc1Cl`, the AC50 [1] was 23.1 µM [falling, single point].
With `O=C(Nc1nccs1)c1ccc(CSc2nnnn2-c2ccccc2)cc1` the AC50 [1] was 7.08 µM [falling, full curve, poor fit].
For `COc1ccc(CN=C(C#N)C2=C(O)c3ccccc3C2=O)cc1`, the AC50 [1] was 12.6 µM [falling, partial curve, poor fit].
For `CCC(=O)Nc1cccc(C(=O)/C=C/c2cccs2)c1`, the AC50 [1] was 17.8 µM [falling, single point].
In the case of `O=C(OCC(=O)N1CCCCC1)c1cc2ccccc2cc1O`, the AC50 [1] is reported as 17.8 µM [falling, partial curve, poor fit].
With `COc1ccc(N/C=C(\C#N)S(=O)(=O)c2ccc(OC)cc2)cc1` the AC50 [1] was 17.8 µM [rising, partial curve, poor fit].
With `COc1cccc(Oc2cnc(N)nc2-c2ccc(OC)cc2O)c1` the AC50 [1] was 23.1 µM [falling, single point].
